Test results taken from patent US10463666B2, “Pharmaceutical composition comprising progestogens and/or estrogens and 5-methyl-(6S)-tetrahydrofolate” (MERCK & CIE, priority 2005, dated 2019).
At least one compound was matched to its structure with a doubt left.

Experiment: compatibility investigation of binary mixtures with vitamin B12 by DSC
Type: physicochemical
Set-up: key: ++: good compatibility expected below the stated temperature; +: compatibility below the stated temperature; ++/−: indifferent compatibility, possibly good compatibility below the stated temperature; +/−−: indifferent compatibility, appears to be compatible below the stated temperature; −: (strong) interaction, incompatible; −−−: (strong) interaction, incompatible
Conditions: binary mixture with vitamin B12, DSC, various gases and temperatures
Method: Both vitamin B12 and 5-methyl-(6S)-tetrahydrofolate are unstable in the presence of atmospheric oxygen and humidity. […] Measurements of the incompatibilities between the intended formulation ingredients were carried out by a thermoanalytical method (DSC, differential scanning calorimetry). This allows incompatibilities to be recognized through low enthalpies of fusion and melting temperatures. These are caused for example by a reduced proportion of crystalline substance and the increase in impurities. In the determination, binary mixtures of excipients or active ingredients in each case with vitamin B12 were investigated, and the compatibility was examined under the influence of various gases and temperatures. […]

SMILES: C#C[C@]1(O)CC[C@H]2[C@@H]3CCc4cc(O)ccc4[C@H]3CC[C@@]21C [Ethinylestradiol]
- Compatibility: −−−
